Test results as given in PubChem BioAssay AID602313 (National Center for Advancing Translational Sciences (NCATS), 2012).
Among all 390,000 compounds or so, about 760 (0.19%) were called active. The shares of active, inactive and inconclusive entries below differ from those in the screen. The call rests on the fitted dose curve; in most records, active means well fitted inhibition curve with a large enough effect; inconclusive means small, poorly fitted or top-dose-only effect; inactive means flat fitted curve, though single readings scatter. Potencies beside an inconclusive call are fits to weak or partial responses and may not hold up.

Assay: qHTS for Inhibitors of Vif-A3F Interactions: qHTS; further: nearly all actives have a fitted effect of over 65% in size; on activity, negative = active: % of control where 0% means no effect
Conditions: HeLa A3F-eYFP + Vif (tagged APOBEC3F with the HIV-1 protein that degrades it), YFP fluorescence increase; series mostly up to 46.1 µM; activity, negative = active: at the top concentration
Summary of the method: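 HeLa cells stably expressing A3F-eYFP plus Vif, plated and incubated overnight at 37 deg C, then exposed to compounds overnight at 37 deg C. Blocked degradation read as raised yellow fluorescence (Ex 488/Em 500-530).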
Potency means the concentration at half of the fitted maximal effect.

**Q.** For `CC(C)S(=O)(=O)c1cnc(-c2ccccn2)nc1N`, which Potency is on record?
**A.** Its Potency is inconclusive: 11.2 µM [inhibitor, partial curve, poor fit].

**Q.** With `Nn1c(SCC(=O)Nc2ccc3c(c2)OCCO3)nnc1-c1ccncc1` as the compound, how does the Potency read?
**A.** Its Potency is inconclusive: 11.2 µM [inhibitor, partial curve, poor fit].

**Q.** Which “activity, negative = active” value does the source give for `CCOC(=O)c1nc2sc3c(c2c(=O)[nH]1)CCCC3` here?
**A.** The value was inactive: -2.36%.

**Q.** Which “activity, negative = active” value does the source give for `Cc1cccc(NC(=S)N(Cc2ccc(Br)cc2)Cc2ccc(C(=O)O)cc2)c1` here?
**A.** Its value is inactive: 6.92%.

**Q.** Which Potency does the source give for `CC(=NNC(=O)c1ccncc1)c1ccc2ccccc2c1O` here?
**A.** Its Potency is inconclusive: 15.8 µM [inhibitor, partial curve, poor fit].

**Q.** With `COC(CNC(=O)c1ccc(-n2c(=S)[nH]c3ccccc3c2=O)cc1)OC` as the compound, how does the “activity, negative = active” value read?
**A.** Its value is inactive: -15.3%.

**Q.** With `C=CCn1c(O)c(N=Nc2ccccc2O)c2ccccc21` as the compound, how does the Potency read?
**A.** The Potency was inconclusive: 25.1 µM [inhibitor, partial curve, poor fit].

**Q.** With `COCCn1c(N)c(NCc2ccccc2)c(=O)[nH]c1=O` as the compound, how does the Potency read?
**A.** The Potency was inconclusive: 25.1 µM [inhibitor, partial curve, poor fit].

**Q.** Which Potency does the source give for `C/[N+]([O-])=C\c1ccc([N+](=O)[O-])o1` here?
**A.** The Potency was inconclusive: 35.5 µM [inhibitor, single point].

**Q.** For `O=C(NCc1cc(C(F)(F)F)ccc1Cl)c1cccc2c1C(=O)c1ccc(N3CCC(Cc4ccccc4)CC3)cc1S2(=O)=O`, which Potency is on record?
**A.** The Potency was inconclusive: 31.6 µM [inhibitor, single point].

**Q.** Which Potency does the source give for `COc1ccc(N(C(=O)CCl)C(C(=O)NCCc2ccccc2)c2cccs2)cc1` (stereo unspecified) here?
**A.** Its Potency is inconclusive: 10 µM [inhibitor, partial curve, poor fit].

**Q.** Which Potency does the source give for `Cc1ccc(C(=O)Nc2nc(-c3ccco3)c(-c3ccco3)s2)o1` here?
**A.** The Potency was inconclusive: 35.5 µM [inhibitor, single point].

**Q.** For `CC(C)n1ncc2c(C(=O)N3CCN(c4ccc(F)cc4)CC3)cc(-c3ccccc3)nc21`, which “activity, negative = active” value is on record?
**A.** Its value is inactive: 1.57%.

**Q.** For `CN1C(=O)C2(c3ccccc31)C1CCCC=C1C(C#N)=C(N)C2(C#N)C#N` (stereo unspecified), which “activity, negative = active” value is on record?
**A.** The value was inactive: -1.86%.

**Q.** With `Cc1ccc(-n2ccn(CC(=O)c3ccc(F)cc3)c(=O)c2=O)cc1C` as the compound, how does the “activity, negative = active” value read?
**A.** The value was inactive: 0.572%.

**Q.** With `CC(C)C[C@H](NC(=O)c1[nH]cnc1C(=O)N[C@@H](C)C(=O)OCc1ccccc1)C(=O)OC(C)(C)C` as the compound, how does the Potency read?
**A.** Its Potency is inconclusive: 22.4 µM [inhibitor, single point].

**Q.** For `COc1cc(CCC(=O)Nc2nnc(C)s2)cc(OC)c1OC`, which Potency is on record?
**A.** Its Potency is inconclusive: 22.4 µM [inhibitor, single point].

**Q.** Which “activity, negative = active” value does the source give for `C=CC[C@@H](CC(=O)N[C@H](CO)Cc1ccccc1)C(=O)N[C@H](COC(=O)[C@@H](CC=C)CC(=O)OC(C)(C)C)Cc1c[nH]c2ccccc12` here?
**A.** Its value is inactive: 1.32%.

**Q.** For `N#CC1=C(N)n2c(s/c(=C\c3ccco3)c2=O)=C(C#N)C1c1ccco1` (stereo unspecified), which Potency is on record?
**A.** Its Potency is inconclusive: 35.5 µM [inhibitor, single point].

**Q.** With `Cc1ccccc1Cn1c(=O)n(CCCCC(=O)NCc2ccc3c(c2)OCO3)c(=O)c2ccccc21` as the compound, how does the “activity, negative = active” value read?
**A.** Its value is inactive: -14.5%.

**Q.** With `Cc1csc(Nc2ccccc2)n1` as the compound, how does the Potency read?
**A.** The Potency was inconclusive: 3.16 µM [inhibitor, single point].

**Q.** With `COc1ccc(CCNc2nc(-c3ccccc3OC)cc(C(F)(F)F)n2)cc1OC` as the compound, how does the Potency read?
**A.** The Potency was inconclusive: 5.62 µM [inhibitor, single point].

**Q.** Which Potency does the source give for `CC(C)Nc1cc(N2CCN(C3CCCCC3)CC2)c2noc3c2c1C(=O)c1ccccc1-3` here?
**A.** Its Potency is inconclusive: 35.5 µM [inhibitor, single point].

**Q.** With `CCCn1nc(-c2ccccc2)c2nc3ccccc3nc21` as the compound, how does the Potency read?
**A.** Its Potency is inconclusive: 11.2 µM [inhibitor, partial curve, poor fit].

**Q.** For `COc1cc(/C=N/NC(=O)c2ccc(CN3C(=O)c4cccc5cccc3c45)cc2)cc(OC)c1O`, which Potency is on record?
**A.** Its Potency is inconclusive: 5.01 µM [inhibitor, full curve, poor fit].

**Q.** Which Potency does the source give for `CCOc1ccc(C(=O)Nc2c(C)nc(Nc3ccccc3)nc2Nc2ccccc2)cc1OCC` here?
**A.** The Potency was inconclusive: 12.6 µM [inhibitor, partial curve, poor fit].

**Q.** For `CC(C)CCNC(=O)C(c1ccco1)N(CCCO)C(=O)Cn1nnc(-c2ccc(F)cc2)n1` (stereo unspecified), which Potency is on record?
**A.** The Potency was inconclusive: 35.5 µM [inhibitor, single point].

**Q.** Which Potency does the source give for `CC(OC(=O)c1ccc(O)cc1)C(=O)Nc1ccc(Oc2ccccc2)cc1` (stereo unspecified) here?
**A.** Its Potency is inconclusive: 35.5 µM [inhibitor, single point].

**Q.** For `CC(=O)n1c2ccccc2c2nc3ccccc3nc21`, which Potency is on record?
**A.** The Potency was inconclusive: 1.12 µM [inhibitor, full curve, poor fit].

**Q.** With `CCc1cc(C(=O)Nc2ccc(OC)nc2)sc1C` as the compound, how does the “activity, negative = active” value read?
**A.** Its value is inactive: -30.6%.

**Q.** For `CCOc1ccccc1N1CN(Cc2ccccc2)CNC1=S`, which Potency is on record?
**A.** The Potency was inconclusive: 35.5 µM [inhibitor, single point].

**Q.** Which Potency does the source give for `Cc1cccc(CSc2ncc(Cl)c(C(=O)Nc3nnc(C)s3)n2)c1` here?
**A.** The Potency was inconclusive: 35.5 µM [inhibitor, single point].

**Q.** For `CCCc1nc2ccccc2c(=O)n1/N=C/c1ccccc1O`, which Potency is on record?
**A.** The Potency was inconclusive: 35.5 µM [inhibitor, single point].

**Q.** Which Potency does the source give for `CCCOc1ccc(C(=O)NCCC(=O)NCCCC(=O)O)cc1` here?
**A.** Its Potency is inconclusive: 35.5 µM [inhibitor, single point].

**Q.** For `Cc1ccc(S(=O)(=O)N2CCN(CC(=O)Nc3ccccc3C(=O)NC3CC3)CC2)cc1`, which Potency is on record?
**A.** The Potency was inconclusive: 5.62 µM [inhibitor, single point].

**Q.** For `COCCn1c(-c2ccc(-c3ccc([N+](=O)[O-])cc3Br)o2)nc2c1c(=O)[nH]c(=O)n2CC(C)C`, which Potency is on record?
**A.** Its Potency is inconclusive: 31.6 µM [inhibitor, single point].

**Q.** For `CCOc1ccccc1OCCC(=O)OCC(=O)Nc1c(C)nn(-c2ccccc2)c1C`, which Potency is on record?
**A.** Its Potency is inconclusive: 1.78 µM [inhibitor, partial curve, poor fit].

**Q.** Which Potency does the source give for `N#Cc1c(C(F)(F)F)cc(-c2cccs2)nc1SCC(=O)Nc1cccc(Br)c1` here?
**A.** The Potency was inconclusive: 2 µM [inhibitor, partial curve, poor fit].

**Q.** For `Cc1ccc(C)c(N2CCN(C(=O)CCc3c(C)nn(-c4ccc(N5CCCC5)nn4)c3C)CC2)c1`, which “activity, negative = active” value is on record?
**A.** The value was inactive: 0.268%.

**Q.** For `COCCNC(=S)N/N=C(\C)c1ccc(OC(F)F)cc1`, which Potency is on record?
**A.** Its Potency is active: 25.1 µM.

**Q.** For `COc1ccc2c(c1)C(=O)C(=O)N2CC1COc2ccccc2O1` (stereo unspecified), which Potency is on record?
**A.** The Potency was inconclusive: 17.8 µM [inhibitor, single point].

**Q.** With `COc1ccccc1C=CC(=O)C=Cc1ccccc1OC` as the compound, how does the Potency read?
**A.** The Potency was inconclusive: 5.01 µM [inhibitor, single point].

**Q.** Which Potency does the source give for `Cn1nnnc1SCC1=C(C(=O)O)N2C(=O)C(NC(=O)C3CC3c3ccccc3)C2SC1` (stereo unspecified) here?
**A.** Its Potency is inconclusive: 25.1 µM [inhibitor, single point].

**Q.** For `O=C1C(=C2CCCCC2)SC(=S)N1Cc1ccco1`, which “activity, negative = active” value is on record?
**A.** Its value is inactive: -3.26%.

**Q.** For `C/C(CC(=O)NC12CC3CC(CC(C3)C1)C2)=N\NC(=O)c1cnccn1`, which Potency is on record?
**A.** The Potency was inconclusive: 0.316 µM [inhibitor, full curve, poor fit].

**Q.** For `Nc1ccc2nc3c(=O)n(C4CCCCC4)c(=O)[nH]c3nc2c1`, which Potency is on record?
**A.** The Potency was active: 12.6 µM.

**Q.** With `Cc1ccc2occ(CC(=O)N(Cc3ccc(Cl)cc3)Cc3ccco3)c2c1` as the compound, how does the “activity, negative = active” value read?
**A.** The value was inactive: 1.69%.

**Q.** With `Cn1nnc(NC(=S)NC(=O)c2cccc3ccccc23)n1` as the compound, how does the Potency read?
**A.** The Potency was inconclusive: 35.5 µM [inhibitor, partial curve, poor fit].

**Q.** Which Potency does the source give for `CN(C)c1ccc(/C=C2\C(=N)N3N=C(CC(=O)N4CCCCC4)SC3=NC2=O)cc1` here?
**A.** Its Potency is inconclusive: 2.82 µM [inhibitor, full curve, poor fit].

**Q.** Which Potency does the source give for `CN(C)c1ccc(/C=C2\N=C(c3ccc(Cl)c([N+](=O)[O-])c3)NC2=O)cc1` here?
**A.** Its Potency is inconclusive: 28.2 µM [inhibitor, partial curve, poor fit].

**Q.** Which Potency does the source give for `COc1ccc2ccccc2c1C(O)c1nccn1C` (stereo unspecified) here?
**A.** The Potency was inconclusive: 4.47 µM [inhibitor, single point].

**Q.** Which Potency does the source give for `Cc1cccc(NC(=S)NC2CCCC2)n1` here?
**A.** The Potency was inconclusive: 6.31 µM [inhibitor, single point].

**Q.** For `O=c1[nH]c(CN2CCN(c3ccccc3)CC2)nc2scc(-c3ccccc3)c12`, which Potency is on record?
**A.** The Potency was active: 22.4 µM.

**Q.** With `O=c1[nH]n(-c2ccccc2)c(=O)c2ccccc12` as the compound, how does the “activity, negative = active” value read?
**A.** The value was inactive: -12.2%.

**Q.** With `C/C(=N\NC(N)=S)c1ccc2c(c1)OCCO2` as the compound, how does the Potency read?
**A.** Its Potency is inconclusive: 22.4 µM [inhibitor, partial curve, poor fit].

**Q.** Which “activity, negative = active” value does the source give for `CCOC(=O)C(C)Sc1nnc2c3ccccc3n(C)c2n1` (stereo unspecified) here?
**A.** The value was inactive: -0.303%.

**Q.** For `S=C(Nc1ccccc1)Nc1nc2ccccc2n1CCOc1ccc(Br)cc1`, which “activity, negative = active” value is on record?
**A.** Its value is inactive: 0.963%.

**Q.** With `Cc1cc(C2C(C#N)=C(N)SC(N)=C2C#N)c(C)s1` as the compound, how does the Potency read?
**A.** Its Potency is inconclusive: 35.5 µM [inhibitor, single point].

**Q.** With `COc1ccc(C(=O)NC(c2ccccc2Cl)c2cc(Cl)c3cccnc3c2O)cc1` (stereo unspecified) as the compound, how does the Potency read?
**A.** The Potency was inconclusive: 35.5 µM [inhibitor, single point].

**Q.** For `COc1ccc(Nc2nc3cc(C)ccc3cc2C#N)cc1`, which Potency is on record?
**A.** Its Potency is active: 22.4 µM.

**Q.** Which Potency does the source give for `O=c1c2ccccc2c(C=Nc2ccccc2O)c(O)n1-c1nccs1` here?
**A.** Its Potency is inconclusive: 28.2 µM [inhibitor, single point].

**Q.** Which Potency does the source give for `Cc1cccc(-c2cc(C(=O)N/N=C/c3cccnc3)c3ccccc3n2)c1` here?
**A.** The Potency was inconclusive: 5.62 µM [inhibitor, single point].

**Q.** Which “activity, negative = active” value does the source give for `O=C(NCc1ccccc1)NC1COc2ccccc2C1` (stereo unspecified) here?
**A.** Its value is inactive: 10.9%.

**Q.** Which Potency does the source give for `Cn1cc(/C=C2\SC(=S)N(NC(=O)c3cccc(Cl)c3)C2=O)c2ccccc21` here?
**A.** Its Potency is active: 7.94 µM.

**Q.** For `Cc1cccc(NC(=S)NC(C)CCc2ccccc2)c1` (stereo unspecified), which Potency is on record?
**A.** The Potency was inconclusive: 3.55 µM [inhibitor, partial curve, poor fit].

**Q.** Which Potency does the source give for `O=C(Nc1nnc(-c2cccs2)s1)c1cccc(F)c1` here?
**A.** The Potency was inconclusive: 7.08 µM [inhibitor, partial curve, poor fit].
